Data as given in PubChem BioAssay AID1159584 (Peter MacCallum Cancer Centre, 2016)

Assay: 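Knock-downs that harm CDH1-null cells more than parental MCF10A cells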 (primary screen)
System: human MCF10A breast epithelial cells, parental and CDH1-null
Reagents: siRNA against human genes
Read-out: 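ATP luminescence (CellTiter-Glo) viability per line relative to mean mock wells over all plates, and the ratio of CDH1-null to parental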
Scale: CDH1-null / parental viability ratio: higher = CDH1-null cells survive relatively better than parental; CDH1-null viability vs mock: higher = more viable CDH1-null cells; parental viability vs mock: higher = more viable parental cells
Here is an unselected part of about 18,000 deposited reagents. Not stated in the record: the amount of reagent, the time to read-out.

no.	gene	CDH1-null / parental viability ratio	CDH1-null viability vs mock (fraction of mock)	parental viability vs mock (fraction of mock)
1	ABCB6	0.8	0.6	0.75
2	ADGRE1	0.79	0.68	0.86
3	CSRNP1	1.07	0.32	0.3
4	EIF5A2	0.93	0.7	0.75
5	ANPEP	1.12	0.99	0.88
6	UBE2V1	1.26	0.43	0.34
7	SPATA2L	1.11	0.39	0.35
8	ARSF	1.09	0.83	0.76
9	DHX15	0.94	0.58	0.62
10	ZKSCAN5	0.94	0.58	0.62
11	KNTC1	1.18	0.66	0.56
12	AFP	0.77	0.58	0.75
13	TNFSF14	0.95	0.71	0.75
14	JPH2	0.78	0.5	0.64
15	FCRL5	1.36	1.09	0.8
16	BPIFC	0.98	0.51	0.52
17	ZNF676	0.77	0.64	0.83
18	RPS15A	2.64	0.74	0.28
19	SMC2	1.22	0.77	0.63
20	DEFB128	1.01	0.81	0.8
21	ITGA2B	1.22	0.61	0.5
22	DSPP	0.94	0.68	0.72
23	GRM1	0.65	0.53	0.82
24	PRKAG1	1.12	0.91	0.81
25	PBX2	1.24	0.92	0.74
26	H4C15	1.01	0.89	0.88
27	NCF2	1	0.83	0.83
28	OR52E4	0.97	0.64	0.66
29	ST6GAL2	0.96	0.68	0.71
30	MYO5A	0.97	0.92	0.95
31	RNF208	0.75	0.6	0.8
32	SLC35D3	0.94	0.62	0.66
33	TUT1	0.83	0.3	0.36

Next part; the last 8 above are carried over.
no.	gene	CDH1-null / parental viability ratio	CDH1-null viability vs mock (fraction of mock)	parental viability vs mock (fraction of mock)
26	H4C15	1.01	0.89	0.88
27	NCF2	1	0.83	0.83
28	OR52E4	0.97	0.64	0.66
29	ST6GAL2	0.96	0.68	0.71
30	MYO5A	0.97	0.92	0.95
31	RNF208	0.75	0.6	0.8
32	SLC35D3	0.94	0.62	0.66
33	TUT1	0.83	0.3	0.36
34	USP11	1.07	0.81	0.76
35	SPATS2L	1.21	0.94	0.78
36	UFD1	1.16	0.65	0.56
37	YIPF2	0.91	0.75	0.82
38	LINC03042	0.91	1.12	1.23
39	TRIM40	0.97	0.95	0.98
40	OGDHL	1	0.88	0.88
41	PCOLCE	0.99	0.91	0.92
42	GAPVD1	0.86	0.76	0.88
43	FOXD4	0.98	0.8	0.82
44	PA2G4	0.98	0.62	0.63
45	AHNAK	1.16	0.43	0.37
46	CABP4	1.11	0.93	0.84
47	CLSTN3	0.54	0.44	0.82
48	GPR6	0.62	0.62	1
49	KATNA1	1.09	0.98	0.9
50	MAPKAP1	0.98	0.91	0.93
51	SLC2A6	0.99	0.89	0.9
52	FSHR	1.29	0.88	0.68
53	RMI2	0.9	0.76	0.84
54	MED4	0.95	0.52	0.55
55	GNAI1	0.92	0.76	0.83
56	TAS2R50	0.94	0.76	0.81
57	DERL1	1	0.76	0.76
58	TIMM29	0.66	0.49	0.74
59	SCARB1	0.99	1.02	1.03
60	PHLPP1	1.03	1.12	1.09
61	SCO2	1.09	0.49	0.45
62	KLF17	1.29	1.03	0.8
63	GRB2	1.25	0.25	0.2
64	C7orf33	1.2	0.67	0.56
65	IFNA5	0.88	0.57	0.65
66	FOXD2	0.84	0.81	0.96
67	RNF135	0.99	0.99	1
68	OR6K2	1.04	0.79	0.76
